# Source: the supplement of paper PMC8256030
# Where “and” joins values, the source holds several entries; their conditions need not be identical. Identical values can stand only once. This is one part of the list. Repeats in this data set agree poorly, so a single value says little.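 HEK293T cells were given each compound shortly before transfection with a reporter in which red mCherry is followed by the SARS-CoV-2 frameshift element and then GFP in the −1 frame, so GFP appears only after frameshifting.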
# Assays:
# [1] = system: SARS-CoV-2 -1 PRF reporter mCherry-FSE-GFP(-1); experiment: mCherry (red) intensity as percent of control; higher = higher upstream reporter expression; settings: 10 µM; 24 h; HEK293T
# [2] = system: SARS-CoV-2 -1 PRF reporter mCherry-FSE-GFP(-1); experiment: percent effect, decrease of GFP/mCherry ratio (-1 PRF reporter) relative to controls; higher = stronger frameshift inhibition; settings: 10 µM; 24 h; HEK293T
SMILES,mCherry [1],percent effect [2]
COc1cc(N)c(Cl)cc1C(=O)N[C@@H]1CCNC[C@@H]1OC [ticalopride],67.8%,-2.1%
CCN(CC)CCN1C(=O)c2c(c3c4cccc(Cl)c4n([C@@H]4O[C@H](CO)[C@@H](OC)[C@H](O)[C@H]4O)c3c3[nH]c4c(Cl)cccc4c23)C1=O [becatecarin],14%,-19.8%
CC1(C)O[C@@H]2C[C@H]3[C@@H]4CCC5=CC(=O)C=C[C@]5(C)[C@@]4(F)[C@@H](O)C[C@]3(C)[C@]2(C(=O)CO)O1,110%,0.211%
COc1ccnc(C[S+]([O-])c2nc3cc(OC(F)F)ccc3[nH]2)c1OC (configuration not stated),87.6%,0.323%
CCCCCOc1ccc(-c2ccc(-c3ccc(C(=O)N[C@H]4C[C@@H](O)[C@@H](O)NC(=O)[C@@H]5[C@@H](O)[C@@H](C)CN5C(=O)[C@H]([C@@H](C)O)NC(=O)[C@H]([C@H](O)[C@@H](O)c5ccc(O)cc5)NC(=O)[C@@H]5C[C@@H](O)CN5C(=O)[C@H]([C@@H](C)O)NC4=O)cc3)cc2)cc1 [Eraxis],21.1%,-23.2%
CCCCN(CCCC)C(=O)CN1C[C@H](c2ccc3c(c2)OCO3)[C@@H](C(=O)O)[C@@H]1c1ccc(OC)cc1 [atrasentan],67.7%,0.32%
COc1ccc2nc3cc(Cl)ccc3c(Nc3cc(CN4CCCC4)c(O)c(CN4CCCC4)c3)c2n1 [pyronaridine],20.8%,10.8%
CC(C)N(CCC(c1ccccc1)c1ccccc1)C(C)C [diisopromine],83.7%,4.93%
C[C@@H](O)CCCCn1c(=O)c2c(ncn2C)n(C)c1=O [lisofylline],92.2%,-1.95%
CCc1cc2c(cc1CC)CC(NC[C@H](O)c1ccc(O)c3[nH]c(=O)ccc13)C2 [Indacaterol],104%,2.92%
N=C(N)c1ccc(CNC(=O)[C@@H]2CCN2C(=O)[C@H](NCC(=O)O)C2CCCCC2)cc1 [melagatran],73.4%,4.53%
CCOc1ccc(C[C@H]2NC(=O)CCSSC[C@@H](C(=O)N3CCC[C@H]3C(=O)N[C@@H](CCCN)C(=O)NCC(N)=O)NC(=O)[C@H](CC(N)=O)NC(=O)[C@H]([C@@H](C)O)NC(=O)[C@H]([C@@H](C)CC)NC2=O)cc1 [atosiban],104%,2.81%
CC(C)c1[nH]c2ccccc2c1C(=O)c1cccnc1 [nictindole],77.9%,-1.99%
CSCC[C@H](NC(=O)[C@H](Cc1c[nH]c2ccccc12)NC(=O)CNC(=O)[C@@H](NC(=O)[C@H](Cc1ccc(OS(=O)(=O)O)cc1)NC(=O)[C@H](CC(=O)O)NC(=O)[C@H](CCC(N)=O)NC(=O)[C@@H]1CCC(=O)N1)[C@@H](C)O)C(=O)N[C@@H](CC(=O)O)C(=O)N[C@@H](Cc1ccccc1)C(N)=O [ceruletide],80.3%,-2.34%
CC(C)S(=O)(=O)n1c(N)nc2ccc(/C(=N/O)c3ccccc3)cc21 [enviroxime],33.4%,-8.35%
COc1cc(C2Oc3cc([C@H]4Oc5cc(O)cc(O)c5C(=O)[C@@H]4O)ccc3OC2CO)ccc1O (some centres not stated) [silibinin],102%,-2.45%
COc1ccc(CN(CCN(C)C)c2ccccn2)cc1 [mepyramine],88.5% and 86.9%,-3.56% and -1.7%
Nc1ccc(S(=O)(=O)Nc2ccc(Cl)nn2)cc1 [sulfachlorpyridazine],125%,-0.0939%
NS(=O)(=O)c1cc2c(cc1C(F)(F)F)NCNS2(=O)=O [hydroflumethiazide],102%,-0.0678%
CNC(=N)NC(=O)Nc1c(C)cccc1C [lidamidine],112%,-4.68%
CNC[C@H](O)c1ccc(O)c(O)c1,110%,-0.807%
Cn1cnc2c1c(=O)[nH]c(=O)n2C,87.6%,-2.48%
CC1=C(CC(=O)O)c2cc(F)ccc2/C1=C\c1ccc([S+](C)[O-])cc1 (configuration not stated),118%,-2.56%
O=S(=O)(O)NC1CCCCC1,141%,12.9%
Clc1ccccc1CN1CCc2sccc2C1,130%,2.77%
CCCCC(CC)CCC(CC(C)C)OS(=O)(=O)O (configuration not stated),102%,0.382%
